Measured values: paper doi:10.1101/2021.10.11.463801
These are yes or no findings as the source states them, for the method shown.

Amino acid sequences for entries named in this document (tags omitted). Residues count along the entry.
UniProt Q07866, residues 185-501: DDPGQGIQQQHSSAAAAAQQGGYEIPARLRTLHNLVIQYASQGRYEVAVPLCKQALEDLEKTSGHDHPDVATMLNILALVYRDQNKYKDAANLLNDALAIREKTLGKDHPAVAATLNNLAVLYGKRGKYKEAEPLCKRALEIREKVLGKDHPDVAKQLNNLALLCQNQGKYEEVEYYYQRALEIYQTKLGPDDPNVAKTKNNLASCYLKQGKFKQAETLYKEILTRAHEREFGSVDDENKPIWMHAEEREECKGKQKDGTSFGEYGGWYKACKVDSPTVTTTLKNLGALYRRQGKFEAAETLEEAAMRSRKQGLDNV

Target: GST-tagged KLC1[185-501] (human) (UniProt Q07866)
Assay: pull-down

binding: no binding
B1: mouse JIP3[186-505] L439P (domain or fragment, UniProt Q9ESN9-5 186-505)
chain: QVGGSGQTESSLPGRSRKERPTSLNVFPLADGMVRAQMGGKLVPAGDHWHLSDLGQLQSSSSYQCPNDEMSESGQSSAAATPSTTGTKSNTPTSSVPSAAVTPLNESLQPLGDYVSVTKNNKQAREKRNSRNMEVQVTQEMRNVSIGMGSSDEWSDVQDIIDSTPELDVCPETRLERTGSSPTQGIVNKAFGINTDSLYHELSTAGSEVIGDVDEGADLLGEFSGMGKEVGNLLLENSQLLETKNALNVVKNDPIAKVDQLSGEQEVLKGELEAAKQAKVKLENRIKELEEELKRVKSEAVTARREPREEVEDDKIPMAQ
